No constants are given. Whether binding was seen depends on the method and setting. For part of these data: Binding can be weak; no strength is given.
Assays:
mouse MET ECD [1] = biological target: T1, mouse MET ECD (mouse, UniProt P16056 25-931); assay: ELISA: MET ECD immobilized (100 ng/well), mAb in human IgG1/lambda format in solution (0-40 nM), HRP anti-human Fc
T1 construct: range 1-931; recombinant ECD; also called mMET; mouse MET extracellular domain

human MET ECD [2] = biological target: T2, human MET ECD (human, UniProt P08581 25-932); assay: as above
T2 construct: range 1-932; recombinant ECD made by standard protein engineering; also called hMET; human MET extracellular domain

mouse MET ECD [3] = biological target: T1, mouse MET ECD; assay: ELISA on MET ECD (FIG. 29)
human MET ECD [4] = biological target: T2, human MET ECD; assay: ELISA on MET ECD (FIG. 29)
llama MET ECD (llama) = assay: ELISA on llama MET ECD
mouse MET ECD [5] = biological target: T1, mouse MET ECD; assay: ELISA on MET ECD
human MET ECD [6] = biological target: T2, human MET ECD; assay: ELISA on MET ECD
[7] = biological target: llama-human chimeric MET ECD CH5; assay: ELISA on MET chimera
[8] = biological target: llama-human chimeric MET ECD CH4; assay: ELISA on MET chimera
[9] = biological target: llama-human chimeric MET ECD CH3; assay: ELISA on MET ECD or chimera
[10] = biological target: human-llama chimeric MET ECD CH6; assay: ELISA on MET ECD or chimera
[11] = biological target: llama-human chimeric MET ECD CH1; assay: ELISA on MET ECD or chimera
human MET ECD [12] = biological target: T2, human MET ECD; assay: ELISA on MET ECD or chimera
[13] = biological target: human-llama chimeric MET ECD CH7; assay: ELISA on MET ECD or chimera
[14] = biological target: llama-human chimeric MET ECD CH2; assay: ELISA on MET ECD or chimera
mouse MET ECD [15] = biological target: T1, mouse MET ECD; assay: SPR and ELISA
human MET ECD [16] = biological target: T2, human MET ECD; assay: SPR and ELISA

B1: 71C3 llama-human chimeric mAb (human IgG1/lambda) (antibody, V domains shown)
VH: QLQLVESGGGLVQPGGSLRLSCAASGFTFSSHAMSWVRQAPGKGLEWVSAINSGGGSTSYADSVKGRFTISRDNAKNTLYLQMNSLKPEDTAVYYCAKELRFDLARYTDYEAWDYWGQGTQVTVSS
VL: SYELTQPSALSVTLGQTAKITCQGGSLGSSYAHWYQQKPGQAPVLVIYDDDSRPSGIPERFSGSSSGGTATLTISGAQAEDEGDYYCQSADSSGNAAVFGGGTHLTVLQ
binding (mouse MET ECD [1]): binds | binding (human MET ECD [2]): binds | binding (mouse MET ECD [3]): binds | binding (human MET ECD [4]): binds | binding (llama MET ECD (llama)): no binding (tested: 0-20 nM) | binding (mouse MET ECD [5]): binds | binding (human MET ECD [6]): binds | binding [7]: no binding (tested: 0-20 nM) | binding [8]: no binding (tested: 0-20 nM) | binding [9]: binds | binding [10]: binds | binding [11]: binds | binding (human MET ECD [12]): binds | binding [13]: binds | binding [14]: binds

B2: 71D4 llama-human chimeric mAb (human IgG1/lambda) (antibody, V domains shown)
VH: ELQLVESGGGLVQPGGSLRLSCAASGFTFSGYGMSWVRQAPGKGLEWVSDINSGGGSTSYADSVKGRFTISRDNAKNTLYLQMNSLKPEDTAVYYCAKDMRLYLARYNDYEAWDYWGQGTQVTVSS
VL: SSALTQPSALSVTLGQTAKITCQGGSLGSSYAHWYQQKPGQAPVLVIYDDDSRPSGIPERFSGSSSGGTATLTISGAQAEDEGDYYCQSADSSGNAAVFGGGTHLTVLQ
binding (mouse MET ECD [1]): binds | binding (human MET ECD [2]): binds | binding (mouse MET ECD [3]): binds | binding (human MET ECD [4]): binds | binding (llama MET ECD (llama)): no binding (tested: 0-20 nM) | binding (mouse MET ECD [5]): binds | binding (human MET ECD [6]): binds | binding [7]: no binding (tested: 0-20 nM) | binding [8]: no binding (tested: 0-20 nM) | binding [9]: binds | binding [10]: binds | binding [11]: binds | binding (human MET ECD [12]): binds | binding [13]: binds | binding [14]: binds

B3: 71A3 llama-human chimeric mAb (human IgG1/lambda) (antibody, V domains shown)
VH: EVQLVESGGGLVQPGGSLRLSCAASGFSFKDYDITWVRQAPGKGLEWVSTITSRSGSTSYVDSVKGRFTISGDNAKNTLYLQMNSLKPEDTAVYYCAKVYATTWDVGPLGYGMDYWGKGTLVTVSS
VL: SYELTQPSALSVTLGQTAKITCQGGSLGSSYAHWYQQKPGQAPVLVIYDDDSRPSGIPERFSGSSSGGTATLTISGAQAEDEGDYYCQSADSSGNAAVFGGGTHLTVLQ
binding (mouse MET ECD [1]): binds | binding (human MET ECD [2]): binds | binding (mouse MET ECD [3]): binds | binding (human MET ECD [4]): binds | binding (llama MET ECD (llama)): no binding (tested: 0-20 nM) | binding (mouse MET ECD [5]): binds | binding (human MET ECD [6]): binds | binding [7]: no binding (tested: 0-20 nM) | binding [8]: no binding (tested: 0-20 nM) | binding [9]: binds | binding [10]: binds | binding [11]: binds | binding (human MET ECD [12]): binds | binding [13]: binds | binding [14]: binds

B4: 76H10 Fab (Fab, V domains shown)
VH: QLQLVESGGGLVQPGGSLRVSCTASGFTFNTYYMTWVRQAPGKGLEWVSDINSGGGTYYADSVKGRFTISRDNAKNTLYLQMNSLKPEDTALYYCVRVRIWPVGYDYWGQGTQVTVSS
VL: QAVVTQEPSLSVSPGGTVTLTCGLSSGSVTTSNYPGWFQQTPGQAPRTLIYNTNNRHSGVPSRFSGSISGNKAALTITGAQPEDEADYYCSLYTGSYTTVFGGGTHLTVL
binding (mouse MET ECD [15]): binds | binding (human MET ECD [16]): binds

B5: 71G3 Fab (Fab, V domains shown)
VH: QVQLVESGGGLVQPGGSLRVSCAASGFTFSTYYMSWVRQAPGKGLEWVSDIRTDGGTYYADSVKGRFTMSRDNAKNTLYLQMNSLKPEDTALYYCARTRIFPSGYDYWGQGTQVTVSS
VL: QAVVTQEPSLSVSPGGTVTLTCGLSSGSVTTSNYPGWFQQTPGQAPRTLIYNTNSRHSGVPSRFSGSISGNKAALTIMGAQPEDEADYYCSLYPGSTTVFGGGTHLTVL
binding (mouse MET ECD [15]): binds | binding (human MET ECD [16]): binds

B6: 71D6 Fab (Fab, V domains shown)
VH: ELQLVESGGGLVQPGGSLRLSCAASGFTFSSYGMSWVRQAPGKGLEWVSAINSYGGSTSYADSVKGRFTISRDNAKNTLYLQMNSLKPEDTAVYYCAKEVRADLSRYNDYESYDYWGQGTQVTVSS
VL: QPVLNQPSALSVTLGQTAKITCQGGSLGARYAHWYQQKPGQAPVLVIYDDDSRPSGIPERFSGSSSGGTATLTISGAQAEDEGDYYCQSADSSGSVFGGGTHLTVL
binding (mouse MET ECD [15]): binds | binding (human MET ECD [16]): binds

B7: 71C3 Fab (Fab, V domains shown)
VH: QLQLVESGGGLVQPGGSLRLSCAASGFTFSSHAMSWVRQAPGKGLEWVSAINSGGGSTSYADSVKGRFTISRDNAKNTLYLQMNSLKPEDTAVYYCAKELRFDLARYTDYEAWDYWGQGTQVTVSS
VL: SYELTQPSALSVTLGQTAKITCQGGSLGSSYAHWYQQKPGQAPVLVIYDDDSRPSGIPERFSGSSSGGTATLTISGAQAEDEGDYYCQSADSSGNAAVFGGGTHLTVL
binding (mouse MET ECD [15]): binds | binding (human MET ECD [16]): binds

B8: 71D4 Fab (Fab, V domains shown)
VH: ELQLVESGGGLVQPGGSLRLSCAASGFTFSGYGMSWVRQAPGKGLEWVSDINSGGGSTSYADSVKGRFTISRDNAKNTLYLQMNSLKPEDTAVYYCAKDMRLYLARYNDYEAWDYWGQGTQVTVSS
VL: SSALTQPSALSVTLGQTAKITCQGGSLGSSYAHWYQQKPGQAPVLVIYDDDSRPSGIPERFSGSSSGGTATLTISGAQAEDEGDYYCQSADSSGNAAVFGGGTHLTVL
binding (mouse MET ECD [15]): binds | binding (human MET ECD [16]): binds

B9: 71A3 Fab (Fab, V domains shown)
VH: EVQLVESGGGLVQPGGSLRLSCAASGFSFKDYDITWVRQAPGKGLEWVSTITSRSGSTSYVDSVKGRFTISGDNAKNTLYLQMNSLKPEDTAVYYCAKVYATTWDVGPLGYGMDYWGKGTLVTVSS
VL: SYELTQPSALSVTLGQTAKITCQGGSLGSSYAHWYQQKPGQAPVLVIYDDDSRPSGIPERFSGSSSGGTATLTISGAQAEDEGDYYCQSADSSGNAAVFGGGTHLTVL
binding (mouse MET ECD [15]): binds | binding (human MET ECD [16]): binds

B10: 71G2 Fab (Fab, V domains shown)
VH: EVQLQESGGGLVQPGGSLRLSCAASGFTFSIYDMSWVRQAPGKGLEWVSTINSDGSSTSYVDSVKGRFTISRDNAKNTLYLQMNSLKPEDTAVYYCAKVYGSTWDVGPMGYGMDYWGKGTLVTVSS
VL: SSALTQPSALSVSLGQTARITCQGGSLGSSYAHWYQQKPGQAPVLVIYGDDSRPSGIPERFSGSSSGGTATLTISGAQAEDEDDYYCQSTDSSGNTVFGGGTRLTVL
binding (mouse MET ECD [15]): binds | binding (human MET ECD [16]): binds

B11: 76G7 Fab (Fab, V domains shown)
VH: QVQLVESGGNLVQPGGSLRLSCAASGFTFSNYYMSWVRQAPGKGLEWVSDIYSDGSTTWYSDSVKGRFTISRDNAKNTLSLQMNSLKSEDTAVYYCARVKIYPGGYDAWGQGTQVTVSS
VL: QAGLTQPPSVSGSPGKTVTISCAGNSSDVGYGNYVSWYQQFPGMAPKLLIYLVNKRASGITDRFSGSKSGNTASLTISGLQSEDEADYYCASYTGSNNIVFGGGTHLTVL
binding (mouse MET ECD [15]): binds | binding (human MET ECD [16]): binds

B12: 72F8 Fab (Fab, V domains shown)
VH: ELQLVESGGGLVQPGGSLRLSCAASGFTFSNYVMSWVRQAPGKGLEWVSDTNSGGSTSYADSVKGRFTISRDNAKNTLYLQMNSLKPEDTALYYCARSFFYGMNYWGKGTQVTVSS
VL: QSALTQPPSLSASPGSSVRLTCTLSSGNNIGSYDISWYQQKAGSPPRYLLNYYTDSRKHQDSGVPSRFSGSKDASANAGLLLISGLQPEDEADYYCSAYKSGSYRWVFGGGTHVTVL
binding (mouse MET ECD [15]): binds | binding (human MET ECD [16]): binds

— patent US20190315873A1 (AGOMAB THERAPEUTICS, published 2019)
